Values from PubChem BioAssay AID720505 (Drosophila RNAi Screening Center, 2013)
The deposit covers about 20,000 reagents; below is an unselected part of those that have a named target and a result. In the full data, about 2,100 (10%) got an active call. 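Raw plate signals without normalisation; calls rest on control-based scores that were not deposited; replicate 2 separates called from uncalled poorly.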 The record does not give: the amount of reagent, the time to read-out.

Test: 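Genes needed for store-operated calcium entry in fly cells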 (primary screen)
System: Drosophila S2R+ cells
Reagents: long dsRNA against Drosophila genes
Challenge: thapsigargin (2 µM) in calcium-free buffer to empty internal stores, then 2 mM calcium added back
Read-out: 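Fluo-4 signal in 384-well plates read on a FLIPR after thapsigargin (2 µM, calcium-free) store depletion and 2 mM calcium add-back; unnormalised mean endpoint per well; screen run twice, selected wells retested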
Reading the numbers: calcium signal and retest calcium signal: higher = more calcium entry after store depletion
Call rule: 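About 1500 genes called as lowering calcium entry, by varying amounts, judged against per-plate control wells with STIM1 as positive and Rho1 as negative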
Calls: active = called as lowering calcium entry; inactive = not called

CG12231 [SID104199237] gave calcium signal, replicate 1 = 74.6; calcium signal, replicate 2 = 144; active.
Depletion of ems [SID104196733] resulted in: calcium signal, replicate 1 = 115; calcium signal, replicate 2 = 197; inactive.
Vsx1 [SID104198141] scored calcium signal, replicate 1 = 76.4; calcium signal, replicate 2 = 119; retest calcium signal, replicate 1 = 126; retest calcium signal, replicate 2 = 4167; active.
Vsx1 [SID104198142] showed calcium signal, replicate 1 = 169; calcium signal, replicate 2 = 157; inactive.
Vsx1 [SID104202361] scored calcium signal, replicate 1 = 114; calcium signal, replicate 2 = 129; inactive.
CG33125 [SID104179937] showed calcium signal, replicate 1 = 129; calcium signal, replicate 2 = 172; inactive.
C901 [SID104199143] gave calcium signal, replicate 1 = 148; calcium signal, replicate 2 = 114; inactive.
For Sec8 [SID104192092] the deposit lists calcium signal, replicate 1 = 114; calcium signal, replicate 2 = 75.8; inactive.
Silencing of CG4712 [SID104186674] resulted in: calcium signal, replicate 1 = 109; calcium signal, replicate 2 = 169; inactive.
CG31637 [SID104182062] showed calcium signal, replicate 1 = 117; calcium signal, replicate 2 = 236; inactive.
Depletion of CG31637 [SID104183055] came out at: calcium signal, replicate 1 = 119; calcium signal, replicate 2 = 94.7; inactive.
After knock-down of CG17826 [SID104190081], the screen gave calcium signal, replicate 1 = 112; calcium signal, replicate 2 = 76.8; inactive.
For CG9360 [SID104199972] the deposit lists calcium signal, replicate 1 = 110; calcium signal, replicate 2 = 91.6; inactive.
After knock-down of CG14505 [SID104186268], the screen gave calcium signal, replicate 1 = 179; calcium signal, replicate 2 = 176; inactive.
Depletion of Sec61alpha [SID104183048] came out at: calcium signal, replicate 1 = 91; calcium signal, replicate 2 = 214; inactive.
Against Usp14 [SID104182645] the deposit lists calcium signal, replicate 1 = 85; calcium signal, replicate 2 = 132; inactive.
After knock-down of Atg8a [SID104197816], the screen gave calcium signal, replicate 1 = 124; calcium signal, replicate 2 = 118; inactive.
With knock-down of Tmf [SID104198160] the results were calcium signal, replicate 1 = 254; calcium signal, replicate 2 = 103; inactive.
After knock-down of CG4627 [SID104186665] the results were calcium signal, replicate 1 = 154; calcium signal, replicate 2 = 112; inactive.
For mtSSB [SID104196797] the deposit lists calcium signal, replicate 1 = 146; calcium signal, replicate 2 = 156; inactive.
Against CG32532 [SID104199348], the values are calcium signal, replicate 1 = 174; calcium signal, replicate 2 = 101; inactive.
Against CG32532 [SID104199349], the entry reads calcium signal, replicate 1 = 171; calcium signal, replicate 2 = 83.7; inactive.
After knock-down of CG32532 [SID104199350] the results were calcium signal, replicate 1 = 75.4; calcium signal, replicate 2 = 196; active.
Against CG32532 [SID104201141], the entry reads calcium signal, replicate 1 = 125; calcium signal, replicate 2 = 106; inactive.
For Tengl1 [SID104180273] the deposit lists calcium signal, replicate 1 = 167; calcium signal, replicate 2 = 139; inactive.
For GstE7 [SID104186469] the deposit lists calcium signal, replicate 1 = 146; calcium signal, replicate 2 = 128; inactive.
Against lectin-29Ca [SID104182427], the entry reads calcium signal, replicate 1 = 169; calcium signal, replicate 2 = 160; inactive.
With knock-down of lambdaTry [SID104185929], the record shows calcium signal, replicate 1 = 126; calcium signal, replicate 2 = 212; inactive.
Against Ir68b [SID104190043], the values are calcium signal, replicate 1 = 95.3; calcium signal, replicate 2 = 99.2; inactive.
For CG5162 [SID104199727], the values are calcium signal, replicate 1 = 104; calcium signal, replicate 2 = 122; inactive.
CG13088 [SID104181984] gave calcium signal, replicate 1 = 157; calcium signal, replicate 2 = 170; inactive.
After knock-down of CG45263 [SID104194149] the results were calcium signal, replicate 1 = 119; calcium signal, replicate 2 = 140; inactive.
With knock-down of CG45263 [SID104194152], the record shows calcium signal, replicate 1 = 134; calcium signal, replicate 2 = 140; inactive.
Against CG45263 [SID104194153], the entry reads calcium signal, replicate 1 = 117; calcium signal, replicate 2 = 96.5; inactive.
For CG45263 [SID104194155], the entry reads calcium signal, replicate 1 = 108; calcium signal, replicate 2 = 107; inactive.
